The reference is the same well before dosing, and untreated signal decays as well.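 Fibroblast labels name human fibroblasts: mostly primary ones from tissues such as uterus (C12385, HUF), lung (H6013), bone (Hs27A), adrenal (HADF) and skin (WS1), plus mammary HMF and breast cancer-associated Hs343T. The cancer cells are basal-like or mesenchymal-like triple-negative breast cancer lines. The paper calls a changed response a hit when it shifts by more than 3x the replicate standard deviation. The tissue of the other fibroblasts is not given here.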
System: HCC1143
Test: relative JC-1 red fluorescence (viability) vs pre-drug, coculture with fibroblast (fraction); higher = more viable cancer cells
Method: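 JC-1 labelled TNBC cells cocultured 1:1 (1,500 cells each) with CellTrace Violet stained primary or stromal fibroblasts in 384-well plates in FluoroBrite medium, treated with one of 42 anticancer drugs at 0.1, 1, 10 or 100 uM. JC-1 red fluorescence (mitochondrial integrity in cancer cells only) was read by plate reader every 8 h for 72 h. Values are normalised to each well's pre-drug value. The stock of one drug was tenfold lower, so its dose labels may be too high.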

CC(C)(C#N)c1cc(Cn2cncn2)cc(C(C)(C)C#N)c1 [Anastrozole]
relative JC-1 red fluorescence
Conditions | 8 h | 16 h | 24 h | 32 h | 40 h | 48 h | 56 h | 64 h | 72 h
10 µM, coculture fibroblast: C12385 | 0.86 | 0.7653 | 0.6995 | 0.637 | 0.573 | 0.534 | 0.489 | 0.445 | 0.417
10 µM, coculture fibroblast: H6013 | 0.8172 | 0.7466 | 0.7119 | 0.692 | 0.634 | 0.63 | 0.595 | 0.579 | 0.536
10 µM, coculture fibroblast: H6019 | 0.7985 | 0.7104 | 0.6567 | 0.5918 | 0.5413 | 0.505 | 0.454 | 0.414 | 0.38
10 µM, coculture fibroblast: H6076 | 0.795 | 0.829 | 0.764 | 0.687 | 0.663 | 0.632 | 0.605 | 0.576 | 0.576
10 µM, coculture fibroblast: H6231 | 0.805 | 0.884 | 0.772 | 0.584 | 0.651 | 0.597 | 0.557 | 0.514 | 0.486
10 µM, coculture fibroblast: HADF | 0.754 | 0.661 | 0.639 | 0.652 | 0.555 | 0.533 | 0.502 | 0.478 | 0.478
10 µM, coculture fibroblast: HCFa | 0.828 | 0.739 | 0.713 | 0.682 | 0.61 | 0.591 | 0.549 | 0.517 | 0.49
10 µM, coculture fibroblast: HCPF | 0.81043 | 0.813 | 0.749 | 0.6409 | 0.645 | 0.605 | 0.558 | 0.52 | 0.494
10 µM, coculture fibroblast: HHSteC | 0.819 | 0.741 | 0.707 | 0.676 | 0.593 | 0.562 | 0.514 | 0.486 | 0.438
10 µM, coculture fibroblast: HMF | 0.799 | 0.913 | 0.835 | 0.681 | 0.715 | 0.669 | 0.61 | 0.562 | 0.518
10 µM, coculture fibroblast: HPFa | 0.93 | 0.8251 | 0.779 | 0.692 | 0.635 | 0.603 | 0.553 | 0.503 | 0.47
10 µM, coculture fibroblast: HUF | 0.8718 | 0.761 | 0.695 | 0.623 | 0.575 | 0.537 | 0.485 | 0.449 | 0.42
10 µM, coculture fibroblast: Hs5 | 0.83086 | 0.9099 | 0.8476 | 0.7777 | 0.738 | 0.6905 | 0.641 | 0.613 | 0.591
10 µM, coculture fibroblast: Hs27A | 0.748 | 0.666 | 0.64 | 0.659 | 0.538 | 0.515 | 0.47 | 0.438 | 0.429
10 µM, coculture fibroblast: Hs343T | 0.8086 | 0.839 | 0.771 | 0.679 | 0.6604 | 0.611 | 0.556 | 0.532 | 0.493
10 µM, coculture fibroblast: WS1 | 0.82099 | 0.7154 | 0.6461 | 0.572 | 0.5128 | 0.459 | 0.412 | 0.378 | 0.349
100 µM, coculture fibroblast: C12385 | 0.8531 | 0.78 | 0.711 | 0.6488 | 0.5925 | 0.53181 | 0.4967 | 0.455 | 0.425
100 µM, coculture fibroblast: H6013 | 0.772 | 0.723 | 0.674 | 0.661 | 0.5768 | 0.554 | 0.52 | 0.4961 | 0.4912
100 µM, coculture fibroblast: H6019 | 0.843 | 0.761 | 0.719 | 0.662 | 0.633 | 0.608 | 0.574 | 0.531 | 0.493
100 µM, coculture fibroblast: H6076 | 0.7997 | 0.826 | 0.784 | 0.7408 | 0.706 | 0.697 | 0.65523 | 0.6344 | 0.624
100 µM, coculture fibroblast: H6231 | 0.8105 | 0.832 | 0.7666 | 0.646 | 0.6865 | 0.6585 | 0.6183 | 0.581 | 0.5544
100 µM, coculture fibroblast: HADF | 0.74 | 0.669 | 0.632 | 0.64 | 0.538 | 0.509 | 0.474 | 0.444 | 0.453
100 µM, coculture fibroblast: HCFa | 0.796 | 0.712 | 0.68 | 0.68 | 0.595 | 0.57 | 0.528 | 0.4941 | 0.483
100 µM, coculture fibroblast: HCPF | 0.803 | 0.819 | 0.773 | 0.673 | 0.696 | 0.663 | 0.621 | 0.604 | 0.59
100 µM, coculture fibroblast: HHSteC | 0.828 | 0.781 | 0.761 | 0.723 | 0.64 | 0.614 | 0.567 | 0.527 | 0.49
100 µM, coculture fibroblast: HMF | 0.8051 | 0.8047 | 0.764 | 0.676 | 0.683 | 0.658 | 0.609 | 0.589 | 0.565
100 µM, coculture fibroblast: HPFa | 0.93 | 0.857 | 0.837 | 0.762 | 0.698 | 0.667 | 0.619 | 0.584 | 0.544
100 µM, coculture fibroblast: HUF | 0.8872 | 0.8187 | 0.777 | 0.707 | 0.66 | 0.634 | 0.586 | 0.552 | 0.522
100 µM, coculture fibroblast: Hs5 | 0.8338 | 0.8602 | 0.8109 | 0.756 | 0.7053 | 0.6767 | 0.6458 | 0.6184 | 0.6075
100 µM, coculture fibroblast: Hs27A | 0.72658 | 0.654 | 0.60084 | 0.619 | 0.4782 | 0.4508 | 0.4 | 0.368 | 0.379
100 µM, coculture fibroblast: Hs343T | 0.816 | 0.8704 | 0.811 | 0.708 | 0.712 | 0.673 | 0.634 | 0.608 | 0.5752
100 µM, coculture fibroblast: WS1 | 0.8472 | 0.759 | 0.722 | 0.654 | 0.598 | 0.562 | 0.514 | 0.476 | 0.447

Reference: the supplement of paper PMC6078165
